Results taken from publication PMC11781169.
These are yes or no findings as the source states them, for the method shown. In cells and extracts the contact can be indirect.

Amino acid sequences for entries named in this document (tags omitted).
UniProt Q13049: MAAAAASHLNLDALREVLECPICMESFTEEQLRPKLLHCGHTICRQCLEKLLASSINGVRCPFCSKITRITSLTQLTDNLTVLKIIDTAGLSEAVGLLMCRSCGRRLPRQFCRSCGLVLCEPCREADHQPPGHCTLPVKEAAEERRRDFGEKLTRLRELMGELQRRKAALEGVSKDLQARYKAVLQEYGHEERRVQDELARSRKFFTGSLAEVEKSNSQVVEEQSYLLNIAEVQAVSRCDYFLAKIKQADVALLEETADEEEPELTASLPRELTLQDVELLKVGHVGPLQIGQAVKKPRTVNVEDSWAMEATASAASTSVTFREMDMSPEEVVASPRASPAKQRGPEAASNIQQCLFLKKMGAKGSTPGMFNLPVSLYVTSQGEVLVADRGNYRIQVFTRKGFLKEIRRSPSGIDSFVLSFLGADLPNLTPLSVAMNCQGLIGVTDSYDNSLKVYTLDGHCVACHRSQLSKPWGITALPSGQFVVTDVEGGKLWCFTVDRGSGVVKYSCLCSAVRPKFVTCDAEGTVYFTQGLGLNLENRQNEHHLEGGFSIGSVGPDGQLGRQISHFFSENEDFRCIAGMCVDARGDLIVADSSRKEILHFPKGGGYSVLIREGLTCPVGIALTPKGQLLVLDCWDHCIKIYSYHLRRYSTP
UniProt Q9QUJ7: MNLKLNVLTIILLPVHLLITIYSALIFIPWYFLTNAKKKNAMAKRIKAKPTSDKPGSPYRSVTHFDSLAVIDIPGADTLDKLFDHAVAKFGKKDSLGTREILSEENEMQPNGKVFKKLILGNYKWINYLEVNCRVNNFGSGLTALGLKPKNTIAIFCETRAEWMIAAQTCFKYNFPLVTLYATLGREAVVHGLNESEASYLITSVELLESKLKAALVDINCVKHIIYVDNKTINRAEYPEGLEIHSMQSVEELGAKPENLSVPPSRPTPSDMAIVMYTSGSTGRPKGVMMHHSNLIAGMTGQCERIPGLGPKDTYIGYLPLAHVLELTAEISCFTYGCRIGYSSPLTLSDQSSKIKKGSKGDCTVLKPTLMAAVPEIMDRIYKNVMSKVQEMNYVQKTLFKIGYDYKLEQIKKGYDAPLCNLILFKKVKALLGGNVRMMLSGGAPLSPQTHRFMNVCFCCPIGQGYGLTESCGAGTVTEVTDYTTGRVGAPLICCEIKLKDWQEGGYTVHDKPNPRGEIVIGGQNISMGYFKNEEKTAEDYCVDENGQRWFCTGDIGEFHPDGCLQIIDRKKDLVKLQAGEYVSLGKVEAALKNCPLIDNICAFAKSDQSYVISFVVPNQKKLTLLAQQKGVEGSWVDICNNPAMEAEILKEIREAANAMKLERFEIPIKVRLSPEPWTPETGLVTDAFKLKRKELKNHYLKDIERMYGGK

Biological target: Flag-TRIM32 (tripartite motif containing 32), expressed in primary neurons (human) (UniProt Q13049)
Experiment: co-IP; primary neurons transfected with Flag-TRIM32; lysate immunoprecipitated with anti-Flag on magnetic beads; immunoblot for endogenous ACSL4, GPX4, xCT and NRF2; in the presence of Baf A1

Row | binding | Molecule
1 | no binding | endogenous ACSL4 of primary neurons (from UniProt Q9QUJ7 1-711)
2 | no binding | endogenous NRF2 of primary neurons (protein, UniProt Q60795 1-597) MMDLELPPPGLQSQQDMDLIDILWRQDIDLGVSREVFDFSQRQKDYELEKQKKLEKERQEQLQKEQEKAFFAQFQLDEETGEFLPIQPAQHIQTDTSGSASYSQVAHIPKQDALYFEDCMQLLAETFPFVDDHESLALDIPSHAESSVFTAPHQAQSLNSSLEAAMTDLSSIEQDMEQVWQELFSIPELQCLNTENKQLADTTAVPSPEATLTEMDSNYHFYSSISSLEKEVGNCGPHFLHGFEDSFSSILSTDDASQLTSLDSNPTLNTDFGDEFYSAFIAEPSDGGSMPSSAAISQSLSELLDGTIEGCDLSLCKAFNPKHAEGTMEFNDSDSGISLNTSPSRASPEHSVESSIYGDPPPGFSDSEMEELDSAPGSVKQNGPKAQPAHSPGDTVQPLSPAQGHSAPMRESQCENTTKKEVPVSPGHQKAPFTKDKHSSRLEAHLTRDELRAKALHIPFPVEKIINLPVDDFNEMMSKEQFNEAQLALIRDIRRRGKNKVAAQNCRKRKLENIVELEQDLGHLKDEREKLLREKGENDRNLHLLKRRLSTLYLEVFSMLRDEDGKPYSPSEYSLQQTRDGNVFLVPKSKKPDTKKN
